{
  "source": "patent US8552016B2",
  "about": "“Anti-cancer cyclopenta(g)quinazoline compounds” (BTG International Limited, priority 2001, dated 2013)",
  "system": "A431 cells",
  "test": "Inhibition of growth of A431 (neo-transfected, not expressing α-FR) cells",
  "assay_type": "cell-based, human",
  "conditions": "read-out: Inhibition of cell growth, IC50, A431 + 1 μM FA; 20 nM LV; + 1 μM folic acid",
  "description": "CB300945, the (RS)-C2-CH2OH analogue of the known cyclopenta[g]-quinazoline, CB300638 was synthesised as in Example 1. In addition, the C2-NH2 was made as a comparative example. […] The human A431-FBP cell line was transfected with the α-FR and sensitivity compared with the A431 cell line. Human nasopharengeal KB cells constitutively overexpress this receptor (see Bagnoli et al. Oncogene, 19, 4754-4763, 2000).",
  "note": "At least one read-out could not be matched to a standard name with certainty.",
  "data": [
    {"smiles": "C#CCN(c1ccc(C(=O)N[C@@H](CCC(=O)N[C@H](CCC(=O)O)C(=O)O)C(=O)O)cc1)C1CCc2cc3nc(N)[nH]c(=O)c3cc21", "note": "(mixture of isomers) [CB300944 (RS)]", "values": [
      {"measurement": "IC50", "value": 25, "unit": "µM"}
    ]}
  ]
}
